Among all 400,000 compounds or so, about 13,000 (3.2%) were called active. This list was built around the results that the source calls inconclusive (neither active nor inactive); the mix of calls is not that of the screen. The call rests on the fitted dose curve; in most records, active means well fitted cell-killing curve with a large enough effect; inconclusive means small, poorly fitted or top-dose-only effect, or effect the other way; inactive means flat fitted curve, though single readings scatter. Potencies beside an inconclusive call are fits to weak or partial responses and may not hold up.
Assay: qHTS assay for MDR1-selective chemotherapeutics: Primary screen using the drug-selected MDR subline cells KB-V1; further: nearly all actives have a fitted effect of over 60% in size
Conditions: KB-V1 MDR cells viability, CellTiter-Glo, 72 h; activity change, negative = cytotoxicity: at 46.1 µM (top of the series)
Method in brief: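 KB-V1 MDR subline cells in DMEM (phenol-red free, 10% FBS) exposed to compounds in qHTS concentration series for 72 h at 37 degrees C. Viability read by CellTiter-Glo luminescence; concentration-effect curves fitted after normalization and correction.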
On the % scale 0 is the no-effect control and ±100 the full control effect; potency means the concentration at half of the fitted maximal effect.

Compound | Potency | activity change, negative = cytotoxicity
Cc1cc2oc(=O)cc(CN3CCCCC3)c2cc1C(C)C | inconclusive: 15.8 µM [cytotoxic, single point] | –
O=C(Nc1ccc(N2CCCC2)c(Cl)c1)c1ccco1 | inconclusive: 18.4 µM [cytotoxic, partial curve] | –
C=CCNC(=O)C1CC(=O)N(c2ccc(OCC(=O)Nc3c(C)cccc3C)cc2)C1 (centres undefined) | inactive | –
Cc1ccc[n+](CC(=O)N2CCCCC2)c1C | inconclusive: 14.6 µM [rising, single point] | –
Cc1cccc(C(=O)N2CCNC(=O)C2CC(=O)Nc2cccc(Cl)c2)c1 (centres undefined) | inconclusive: 10.3 µM [rising, partial curve, poor fit] | –
COc1cccc(C(=O)Nc2cc(OC)ccc2NC(=O)c2ccco2)c1 | inconclusive: 9.2 µM [cytotoxic, partial curve, poor fit] | –
CCOC(=O)C1=CC[C@@H](c2ccc([N+](=O)[O-])cc2)N(S(=O)(=O)c2ccc(C)cc2)[C@H]1c1ccccc1 | inactive | –
COC(=O)C(NC(=O)C(NC(=O)c1ccccc1)C(C)C)C(C)C (centres undefined) | inactive | –
Cc1ccc(S(=O)(=O)NC(C)(C)CSc2ccccn2)cc1 | inconclusive: 25.9 µM [cytotoxic, partial curve, poor fit] | –
COc1cccc(C(=O)Nc2sc3c(c2C#N)CCN(C(C)=O)C3)c1 | inconclusive: 1.84 µM [cytotoxic, full curve] | –
Cc1cc(C)cc(Nc2ncc3c(n2)CC(c2ccco2)CC3=O)c1 (centres undefined) | inconclusive: 2.91 µM [cytotoxic, partial curve] | –
COc1cccc(CNS(=O)(=O)c2cc(Br)cc3c2N(C(C)=O)C(C)C3)c1 (centres undefined) | inconclusive: 20.6 µM [cytotoxic, single point] | –
CCOC(=O)[C@]12CCC=C1N(Cc1ccc(Cl)cc1Cl)C(=O)[C@H](CC(=O)NCCC(C)C)C2 | inconclusive: 5.17 µM [cytotoxic, partial curve] | –
COc1ccc(NC(=O)CCC(=O)Nc2nnc(CC(C)C)s2)cc1Cl | inactive | –
COc1ccc(CNC(=O)c2[nH]c(C(F)(F)F)nc2-c2ccccc2)cc1OC | inconclusive: 29.1 µM [cytotoxic, single point] | –
CCOC(=O)c1c(C)[nH]c(N=Nc2cccc(OC)c2)c1C | inconclusive: 8.2 µM [cytotoxic, partial curve] | –
CC(=O)Nc1ccc(Nc2ccc([N+](=O)[O-])cn2)cc1 | inconclusive: 29.1 µM [rising, single point] | –
COCCCn1c(C)nnc1SCc1ccc(C(C)(C)C)cc1 | inconclusive: 18.4 µM [cytotoxic, single point] | –
CCOC(=O)c1sc2nc(C)nc(N3CCN(S(=O)(=O)c4ccccc4)CC3)c2c1C | inconclusive: 20.6 µM [cytotoxic, single point] | –
Cc1sc(N)c(C(=O)c2ccccc2Cl)c1C | inactive | –
Cc1cccc(Cc2cnc(NC(=O)c3ccc4c(c3)CC(c3ccccc3)OC4=O)s2)c1 (centres undefined) | inactive | –
COCCCNc1ccn2nc(-c3ccc(Cl)cc3)cc2n1 | inactive | –

Compound | Potency | activity change, negative = cytotoxicity
CN(C)N1C(=O)c2c(Cl)c(Cl)c(Cl)c(Cl)c2C1=O | inconclusive: 18.4 µM [rising, single point] | –
CN(C)S(=O)(=O)Nc1ccc(-c2cn3ccsc3n2)cc1 | – | inconclusive: 62.4%
C[C@]12CC[C@@H]3c4ccc(O)cc4CC[C@H]3[C@@H]1C[C@@H](O)[C@@H]2O | inconclusive: 29.1 µM [cytotoxic, single point] | –
O=C(NC1CCCC1)C(c1ccco1)N(Cc1ccccc1)C(=O)c1csnn1 (centres undefined) | active: 13 µM | –
N#Cc1ccc(NC(=S)NC(=O)C2CC2)cc1 | inactive | –
COc1ccc(-c2nn3c(-c4cccc(C)c4)nnc3s2)cc1OC | active: 16.4 µM | –
O=C(NCc1ccco1)c1cc(-c2ccc3c(c2)OCO3)on1 | inactive | –
CC1(C)c2[nH]c3ccccc3c2C[C@@H]2C(=O)N(Cc3ccccc3Cl)C(=O)N21 | inconclusive: 29.1 µM [cytotoxic, single point] | –
O=c1c2ccccc2nc(SCc2cccc(F)c2)n1C1CCCC1 | inconclusive: 18.4 µM [cytotoxic, partial curve] | –
CCOc1cc(NCCN2CCOCC2)c([N+](=O)[O-])cc1OCC | inconclusive: 9.2 µM [cytotoxic, partial curve] | –
O=C(CCCCn1c(=O)c2ccccc2n(Cc2ccc(F)cc2Cl)c1=O)NCc1ccco1 | inconclusive: 4.61 µM [cytotoxic, partial curve, poor fit] | –
Cc1ccc(-n2nc(C(=O)N3CCN(c4ccccc4)CC3)c(=O)n(C)c2=O)cc1 | inactive | –
Cc1ccc(N(C(C)C(=O)N2CCC(C)CC2)S(C)(=O)=O)cc1C (centres undefined) | inconclusive: 9.2 µM [cytotoxic, partial curve] | –
Cc1sc2ncn(CC(=O)NCCCC(=O)N3CCC(C)CC3)c(=O)c2c1C | inconclusive: 20.6 µM [cytotoxic, partial curve, poor fit] | –
CCOC(=O)c1c(NC(=O)C(F)(OC)C(F)(F)F)sc(C(=O)N2CCCCC2)c1C (centres undefined) | inactive | –
Cc1ccc(NC(=O)Cn2c(=O)n(Cc3ccc4c(c3)OCO4)c(=O)c3ccccc32)c(C)c1 | inconclusive: 16.4 µM [rising, single point] | –
CCOc1ccccc1C(=O)NCC(=O)OCC(=O)NCCc1ccc(S(N)(=O)=O)cc1 | inconclusive: 3.66 µM [rising, full curve, poor fit] | –
COc1ccccc1NC(=O)CCc1c(C)[nH]c(=O)c(C#N)c1C | inconclusive: 23.1 µM [rising, partial curve, poor fit] | –
O=C1NC(=O)C(c2ccccc2)(C2CCCC2)N1 (centres undefined) | inconclusive: 13 µM [rising, partial curve] | –
COc1ccccc1NS(=O)(=O)c1cc(NC(=O)c2cnccn2)ccc1N1CCOCC1 | inconclusive: 20.6 µM [cytotoxic, single point] | –
COc1ccc2cc(S(=O)(=O)N3CCCC(C)C3)ccc2c1 (centres undefined) | inactive | –
COc1cccc(CNc2ncnc3ccc(-c4c(C)noc4C)cc23)c1 | inconclusive: 29.1 µM [cytotoxic, single point] | –

Pulled one by one from the list above (four):
Compound | Potency | activity change, negative = cytotoxicity
CCOC(=O)c1sc2nc(C)nc(N3CCN(S(=O)(=O)c4ccccc4)CC3)c2c1C | inconclusive: 20.6 µM [cytotoxic, single point] | –
COc1ccc(CNC(=O)c2[nH]c(C(F)(F)F)nc2-c2ccccc2)cc1OC | inconclusive: 29.1 µM [cytotoxic, single point] | –
O=C(NCc1ccco1)c1cc(-c2ccc3c(c2)OCO3)on1 | inactive | –
Cc1sc2ncn(CC(=O)NCCCC(=O)N3CCC(C)CC3)c(=O)c2c1C | inconclusive: 20.6 µM [cytotoxic, partial curve, poor fit] | –

From PubChem BioAssay AID1347076 (National Center for Advancing Translational Sciences (NCATS), 2019)
